The experiment is described as follows: qHTS Assay for Modulators of Lamin A Splicing. The settings on record: HeLa LMNA splicing GFP/RFP minigene ratio, 48 h. An outline of the steps:
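Read-out is the ratio of GFP to DsRed2 object intensity, acquired by 488 nm laser-scanning cytometry on HeLa lamin A-EGFP minigene reporter cells. Compound incubation 48 hrs at 37 °C in Opti-MEM with 2% FBS; DMSO 0.5% final.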

Where [1] appears, read: measured here: RFP viability control channel.
Setting [2] is: measured here: GFP splicing reporter channel.

Some of the results follow. Shown are side measurements of this screen, not its main read-out; they come without a call. Compounds called inactive in the main read-out are mostly missing here. Potencies come from curve fits of mixed quality, noted in brackets.

Regarding `O=C(/C=C/c1cccc([N+](=O)[O-])c1)Nc1cccc(NC(=O)c2ccco2)c1`, the AC50 – broadly, the midpoint of the concentration-response curve, whichever way the signal moves – under setting [1] is 20 µM [rising, single point].
Take `COC(c1ccccc1)c1nnc(CCC(=O)N2CCN(CCOc3ccccc3)CC2)o1` (stereo not given): the AC50 under setting [2] is 0.708 µM [falling, single point].
The same measure, in the same setting: under `CCOCCCNC(=O)c1ccc(-n2c(-c3ccccc3)cc3c2CCCC3)cc1` stands 35.5 µM [falling, single point].
For the molecule `Cc1ccc2cccc(Oc3ncnc4scc(-c5ccccc5)c34)c2n1`, under setting [1], the AC50 was 11.2 µM [rising, single point].
Same read-out and setting: the same measure for `CC(C)(C)C(=O)NC(=S)Nc1ccc(F)cc1`: 0.0631 µM [falling, full curve, poor fit]; for `CC(O)CNc1nc2sc3c(c2c(=O)n1CCc1ccccc1)CCCCC3` (stereo not given): 8.91 µM [rising, partial curve, poor fit].
Turning to `N=C(N)SCCc1cccc(CCSC(=N)N)c1`, the AC50 under setting [2] was 7.94 µM [rising, partial curve, poor fit] and the AC50 under setting [1] is 11.2 µM [rising, partial curve].
Turning to `COc1ccccc1Oc1ccc(S(=O)(=O)Nc2cccnc2)cc1`, the AC50 under setting [2] was 4.47 µM [rising, partial curve] and the AC50 under setting [1] was 3.16 µM [rising, partial curve].
In the case of `CC1CCN(CCc2nc3cc(NS(=O)(=O)c4ccc(F)cc4)ccc3n2C)CC1`, the AC50 under setting [1] is 12.6 µM [rising, single point].
With `O=C(CS(=O)(=O)c1cccc2nsnc12)Nc1ccccc1Cl`, the AC50 under setting [2] was 0.0224 µM [falling, full curve, poor fit].
Regarding `CN(C)c1ccc(N/C=C/C(=O)C(F)(F)F)cc1`, the AC50 under setting [1] is 0.00708 µM [rising, full curve, poor fit].
Turning to `COc1ccc(CNC(=O)CSc2nnnn2Cc2ccccc2)cc1`, the AC50 was 20 µM [falling, partial curve, poor fit] under setting [2] and 0.00708 µM [falling, full curve, poor fit] under setting [1].
As to `CC(NC(=O)COc1ccc(/C=N/NS(=O)(=O)c2ccccc2)cc1)c1ccccc1` (stereo not given), the AC50 under setting [2] was 14.1 µM [rising, partial curve] and the AC50 under setting [1] is 12.6 µM [rising, partial curve].
Regarding `Cc1cc(Cl)ccc1NC(=S)N1CCN(Cc2ccccc2)CC1`, the AC50 under setting [1] is 12.6 µM [rising, partial curve, poor fit].
As for `NCCC(=O)NCCc1cnc[nH]1`, the AC50 under setting [1] was 1.58 µM [falling, full curve, poor fit].
Consider `O=C(/C=C/c1cccc(Cl)c1)Nc1ncccn1`, for which the AC50 under setting [1] was 20 µM [rising, single point].
For `COc1ccc(C)c2sc(NC(=O)C3=COCCO3)nc12`, under setting [1], the AC50 was 10 µM [rising, partial curve, poor fit].
In the case of `COc1ccc(CCNC(=O)c2ccc(-c3ccc([N+](=O)[O-])cc3)o2)cc1OC`, under setting [1], the AC50 is 11.2 µM [rising, partial curve].
As to `COCCn1c(C)cc(C(=O)CSc2nc3ccccc3c(=O)n2C(C)COC)c1C` (stereo not given), the AC50 under setting [2] was 8.91 µM [falling, partial curve].
As for `O=C(c1ccc(N2CCC3(CC2)OCCO3)c([N+](=O)[O-])c1)N1CCOCC1`, under setting [2], the AC50 is 0.708 µM [rising, full curve, poor fit].
For the molecule `Nc1c(-c2cccs2)cnn1-c1nc(-c2ccc(F)cc2)cs1`, the AC50 was 15.8 µM [falling, single point] under setting [2] and 12.6 µM [falling, partial curve] under setting [1].
On to `Cc1ccc(Nc2nc3ccccc3s2)c(C)c1`, for which the AC50 under setting [1] is 12.6 µM [rising, partial curve].
Take `CC(C)CCNC(=O)CN1C(=O)CSc2ccc(S(=O)(=O)N3CCC(C)CC3)cc21`: the AC50 under setting [2] was 0.1 µM [falling, full curve].
Turning to `COc1ccc(CCNc2oc(Cc3ccccc3)nc2C#N)cc1OC`, the AC50 under setting [1] is 20 µM [rising, single point].
With `Cc1cc(C)c(S(=O)(=O)c2ccccc2)c(OC(=O)c2c(F)cccc2F)n1`, under setting [1], the AC50 was 1 µM [rising, partial curve].
Regarding `Cc1cc2cccc(C)c2nc1SCC(=O)NNC(=O)c1ccco1`, the AC50 under setting [2] was 0.158 µM [falling, full curve, poor fit].
For `Cc1ccc(OCCN2C(=O)c3ccccc3C2=O)c([N+](=O)[O-])c1`, the AC50 under setting [1] is 20 µM [rising, single point].
On the same count and under the same terms, under `Cc1cc(NC(=O)COC(=O)C2COc3ccccc3O2)no1` (stereo not given) stands 0.708 µM [falling, full curve, poor fit]; under `c1ccc2c(c1)oc1c(Nc3ccc(CN4CCOCC4)cc3)ncnc12`, 12.6 µM [rising, partial curve, poor fit].
Take `COCCN(Cc1ccccc1)C(=S)Nc1ccc(OC(F)F)cc1`: the AC50 under setting [1] is 17.8 µM [rising, partial curve].
Same read-out and setting: under `COc1ccc(OCC(=O)Nc2ccc3nc(C)sc3c2)cc1` stands 0.398 µM [falling, full curve, poor fit].
As for `Cc1ccc(NC(=O)CSc2nc(=O)n(Cc3cccnc3)c3c2CCC3)cc1F`, the AC50 under setting [2] is 3.98 µM [falling, full curve, poor fit].
For the molecule `Cc1nn(C(=O)c2cccnc2)c(C)c1Sc1ccccc1`, the AC50 under setting [1] was 31.6 µM [rising, single point].
For the molecule `O=c1c(/C=C(\O)c2ccc(F)cc2)nc2ccccc2n1-c1ccccc1`, the AC50 is, setting by setting: under setting [2], 35.5 µM [falling, single point]; under setting [1], 25.1 µM [falling, single point].
Take `O=C(CCCc1nc(-c2ccccc2)no1)Nc1cccnc1`: the AC50 under setting [1] is 15.8 µM [rising, single point].
Take `CCCNS(=O)(=O)c1ccc(NC(=O)Cc2cccs2)cc1`: the AC50 under setting [1] was 35.5 µM [rising, single point].
As to `COc1ccc(Cc2nc3ccc(C(=O)NCc4ccccc4C)cc3o2)cc1`, the AC50 under setting [2] is 0.794 µM [falling, full curve, poor fit].
On to `CCC(CC)C(=O)Nc1ccc2nc(SCC(=O)N3CCCC3)sc2c1`, for which the AC50 under setting [1] is 0.00447 µM [rising, full curve, poor fit].
Still for that read-out and setting: under `CCc1cccc(C)c1NC(=O)c1cc(S(=O)(=O)N(Cc2ccc(C(=O)OC)cc2)Cc2ccc(OC)c(OC)c2)ccc1F` stands 5.62 µM [rising, full curve, poor fit].

The values are drawn from PubChem BioAssay AID1487 (National Center for Advancing Translational Sciences (NCATS), 2009).
